In paper doi:10.1101/472241:
No constants are given. Whether binding was seen depends on the method and setting. Binding seen in cells or lysates may run through a third protein. Some binding calls cover weakened binding; strength is not graded here.

Sequences of proteins named here, by UniProt entry; tags and fusion partners are left off. A change or cut given only in a name is not applied to a line headed by its entry.
UniProt O55057: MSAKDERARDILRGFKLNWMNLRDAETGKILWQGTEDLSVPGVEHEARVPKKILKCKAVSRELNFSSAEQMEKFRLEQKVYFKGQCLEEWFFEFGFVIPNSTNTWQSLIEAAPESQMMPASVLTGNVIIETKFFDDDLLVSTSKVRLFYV
UniProt Q9D0J4: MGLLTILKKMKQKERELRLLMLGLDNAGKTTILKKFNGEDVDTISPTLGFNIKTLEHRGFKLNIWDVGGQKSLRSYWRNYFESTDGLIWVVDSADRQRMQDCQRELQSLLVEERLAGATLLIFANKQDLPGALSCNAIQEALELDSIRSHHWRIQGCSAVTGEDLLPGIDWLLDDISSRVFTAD

Molecular target: PDEδ (delta subunit of phosphodiesterase-6), endogenous (mouse (endogenous in TSC2+/+ MEFs)) (UniProt O55057)
Assay: proximity ligation

- binding: binds
Substance: ADP-ribosylation factor like 2 (Arl2), endogenous (from UniProt Q9D0J4 1-184)
